# Read-outs that look alike come from different tables or passages of the source. Results are given in words; binding and its absence hold for the method and conditions named. Binding seen in cells or lysates may run through a third protein. Some binding calls cover weakened binding; strength is not graded here. Tags and fused reporters may be left off the sequences shown.
# Sequences of proteins named here, by UniProt entry; tags and fusion partners are left off. Residues count along the entry.
# UniProt P01132, residues 29-1217: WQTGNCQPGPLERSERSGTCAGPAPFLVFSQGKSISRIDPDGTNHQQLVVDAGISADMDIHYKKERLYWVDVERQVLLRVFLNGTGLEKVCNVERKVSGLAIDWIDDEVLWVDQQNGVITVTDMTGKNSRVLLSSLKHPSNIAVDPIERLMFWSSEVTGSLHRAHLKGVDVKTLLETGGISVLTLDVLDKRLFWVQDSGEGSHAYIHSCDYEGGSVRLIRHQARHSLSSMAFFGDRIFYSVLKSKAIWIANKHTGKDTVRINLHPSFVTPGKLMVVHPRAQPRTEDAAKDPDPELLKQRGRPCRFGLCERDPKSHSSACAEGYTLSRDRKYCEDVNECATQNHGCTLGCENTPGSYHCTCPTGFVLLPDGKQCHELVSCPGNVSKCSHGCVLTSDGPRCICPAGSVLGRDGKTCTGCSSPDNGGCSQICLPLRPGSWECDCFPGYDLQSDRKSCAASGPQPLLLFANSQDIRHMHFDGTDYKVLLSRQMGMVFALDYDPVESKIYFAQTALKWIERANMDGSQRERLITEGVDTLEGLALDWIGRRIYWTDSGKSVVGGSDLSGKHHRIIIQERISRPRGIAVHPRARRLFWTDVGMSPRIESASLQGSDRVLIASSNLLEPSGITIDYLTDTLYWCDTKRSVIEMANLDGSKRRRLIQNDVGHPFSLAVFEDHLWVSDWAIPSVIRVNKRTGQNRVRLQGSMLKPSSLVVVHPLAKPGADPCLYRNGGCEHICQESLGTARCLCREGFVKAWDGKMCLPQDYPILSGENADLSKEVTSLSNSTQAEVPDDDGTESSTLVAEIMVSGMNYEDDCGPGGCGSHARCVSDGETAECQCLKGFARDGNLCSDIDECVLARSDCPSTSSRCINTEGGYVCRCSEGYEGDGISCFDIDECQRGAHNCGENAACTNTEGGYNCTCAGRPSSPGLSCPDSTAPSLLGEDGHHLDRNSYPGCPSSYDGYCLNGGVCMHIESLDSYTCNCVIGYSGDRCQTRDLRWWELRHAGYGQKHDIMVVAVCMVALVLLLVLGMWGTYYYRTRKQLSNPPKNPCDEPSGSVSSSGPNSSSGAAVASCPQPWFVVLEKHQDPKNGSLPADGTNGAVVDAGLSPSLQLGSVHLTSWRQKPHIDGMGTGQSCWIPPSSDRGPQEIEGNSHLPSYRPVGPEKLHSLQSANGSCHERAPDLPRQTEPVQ
# T1: mouse iRhom2 (Rhbdf2), C-terminal triple HA tag (mouse) (UniProt Q80WQ6)
# T1 sequence: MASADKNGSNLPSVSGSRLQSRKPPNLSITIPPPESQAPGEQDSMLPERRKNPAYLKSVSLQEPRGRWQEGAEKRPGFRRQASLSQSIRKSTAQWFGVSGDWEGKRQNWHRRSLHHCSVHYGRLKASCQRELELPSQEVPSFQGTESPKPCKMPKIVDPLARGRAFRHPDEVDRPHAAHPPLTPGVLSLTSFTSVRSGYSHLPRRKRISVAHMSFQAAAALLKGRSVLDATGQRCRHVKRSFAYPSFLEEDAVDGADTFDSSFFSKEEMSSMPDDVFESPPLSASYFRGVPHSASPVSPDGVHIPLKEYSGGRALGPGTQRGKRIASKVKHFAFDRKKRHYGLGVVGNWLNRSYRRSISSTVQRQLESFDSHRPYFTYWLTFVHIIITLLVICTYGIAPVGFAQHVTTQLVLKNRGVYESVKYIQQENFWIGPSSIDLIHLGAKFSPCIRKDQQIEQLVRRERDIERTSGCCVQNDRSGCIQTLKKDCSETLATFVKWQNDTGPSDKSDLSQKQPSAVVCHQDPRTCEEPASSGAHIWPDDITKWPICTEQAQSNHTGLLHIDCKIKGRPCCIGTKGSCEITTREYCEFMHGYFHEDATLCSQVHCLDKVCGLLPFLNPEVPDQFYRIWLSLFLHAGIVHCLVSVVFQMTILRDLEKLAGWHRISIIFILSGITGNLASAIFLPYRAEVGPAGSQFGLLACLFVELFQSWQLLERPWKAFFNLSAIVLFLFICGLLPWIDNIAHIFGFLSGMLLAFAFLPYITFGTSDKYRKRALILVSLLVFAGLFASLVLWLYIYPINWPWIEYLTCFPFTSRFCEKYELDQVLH
# T2: human iRhom1 (Rhbdf1), C-terminal triple HA tag (human) (UniProt Q96CC6)
# T2 sequence: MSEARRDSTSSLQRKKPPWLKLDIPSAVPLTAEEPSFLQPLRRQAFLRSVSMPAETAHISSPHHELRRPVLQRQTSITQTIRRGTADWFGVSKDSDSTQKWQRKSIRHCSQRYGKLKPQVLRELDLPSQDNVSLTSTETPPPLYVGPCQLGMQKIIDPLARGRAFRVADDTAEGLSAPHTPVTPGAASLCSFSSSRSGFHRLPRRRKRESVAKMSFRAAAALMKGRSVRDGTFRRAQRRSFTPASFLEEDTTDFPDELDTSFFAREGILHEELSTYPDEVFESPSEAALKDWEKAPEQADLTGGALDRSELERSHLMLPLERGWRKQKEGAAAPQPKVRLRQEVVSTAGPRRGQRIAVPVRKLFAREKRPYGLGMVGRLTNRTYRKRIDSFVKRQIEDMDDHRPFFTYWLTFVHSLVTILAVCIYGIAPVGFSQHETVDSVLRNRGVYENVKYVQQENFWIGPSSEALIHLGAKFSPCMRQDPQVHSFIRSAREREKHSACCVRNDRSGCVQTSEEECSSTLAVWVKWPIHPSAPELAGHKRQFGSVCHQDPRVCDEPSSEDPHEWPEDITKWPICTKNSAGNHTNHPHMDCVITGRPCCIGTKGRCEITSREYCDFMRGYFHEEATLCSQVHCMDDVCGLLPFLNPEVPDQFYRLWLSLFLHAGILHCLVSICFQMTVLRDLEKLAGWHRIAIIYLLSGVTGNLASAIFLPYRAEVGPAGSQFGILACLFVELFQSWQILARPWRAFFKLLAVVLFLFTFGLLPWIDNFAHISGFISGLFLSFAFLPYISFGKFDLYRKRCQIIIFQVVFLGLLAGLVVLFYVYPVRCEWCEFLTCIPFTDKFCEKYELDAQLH
# B1: Flag-tagged human prolactin (protein, UniProt P01236 29-227)
# chain: LPICPGGAARCQVTLRDLFDRAVVLSHYIHNLSSEMFSEFDKRYTHGRGFITKAINSCHTSSLATPEDKEQAQQMNQKDFLSLIVSILRSWNEPLYHLVTEVRGMQEAPEAILSKAVEIEEQTKRLLEGMELIVSQVHPETKENEIYPVWSGLPSLQMADEESRLSAYYNLLHCLRRDSHKIDNYLKLLKCRIIHNNNC
# Columns and labels:
# Assay in all cases: co-IP; HA-tagged iRhoms and FLAG-tagged proteins coexpressed in HEK293 ET cells; lysis in 1% Triton X-100, 150 mM NaCl, 50 mM Tris-HCl pH 7.4; iRhoms immunoprecipitated with anti-HA affinity gel, 1 h at 4°C; washes with 300 mM NaCl; FLAG-tagged co-precipitated proteins detected by Western blot
# [1] = molecular target: T1, mouse iRhom2 (Rhbdf2), C-terminal triple HA tag (mouse)
# [2] = molecular target: T2, human iRhom1 (Rhbdf1), C-terminal triple HA tag (human)
# [3] = molecular target: T1, mouse iRhom2 (Rhbdf2), C-terminal triple HA tag (mouse); remark: listed apart in the source
# [4] = molecular target: T2, human iRhom1 (Rhbdf1), C-terminal triple HA tag (human); remark: listed apart in the source
Molecule,binding [1],binding [2],binding [3],binding [4]
Flag-tagged mouse EGF (from UniProt P01132 29-1217),binds,binds,,
B1,,,no binding,no binding

# Source: PMC3149277
